Measured values from PubChem BioAssay AID2549 (National Center for Advancing Translational Sciences (NCATS), 2010).
In all, about 240,000 compounds went through this assay and about 1,300 (0.54%) were called active. The inconclusive results got no clear call from the source; some entries with a clear call stand among them for comparison. Calls come from the whole dose curve; as a rule, active = well fitted inhibition curve with a large enough effect; inconclusive = small, poorly fitted or top-dose-only effect; inactive = flat fitted curve, though single readings scatter. Where the call is inconclusive, the potency comes from a doubtful curve fit.

The chains behind the UniProt entries cited, without tags or fusion partners. Where a name states a change or a piece, a line headed by the entry shows the natural chain unless it says otherwise.
UniProt P46063: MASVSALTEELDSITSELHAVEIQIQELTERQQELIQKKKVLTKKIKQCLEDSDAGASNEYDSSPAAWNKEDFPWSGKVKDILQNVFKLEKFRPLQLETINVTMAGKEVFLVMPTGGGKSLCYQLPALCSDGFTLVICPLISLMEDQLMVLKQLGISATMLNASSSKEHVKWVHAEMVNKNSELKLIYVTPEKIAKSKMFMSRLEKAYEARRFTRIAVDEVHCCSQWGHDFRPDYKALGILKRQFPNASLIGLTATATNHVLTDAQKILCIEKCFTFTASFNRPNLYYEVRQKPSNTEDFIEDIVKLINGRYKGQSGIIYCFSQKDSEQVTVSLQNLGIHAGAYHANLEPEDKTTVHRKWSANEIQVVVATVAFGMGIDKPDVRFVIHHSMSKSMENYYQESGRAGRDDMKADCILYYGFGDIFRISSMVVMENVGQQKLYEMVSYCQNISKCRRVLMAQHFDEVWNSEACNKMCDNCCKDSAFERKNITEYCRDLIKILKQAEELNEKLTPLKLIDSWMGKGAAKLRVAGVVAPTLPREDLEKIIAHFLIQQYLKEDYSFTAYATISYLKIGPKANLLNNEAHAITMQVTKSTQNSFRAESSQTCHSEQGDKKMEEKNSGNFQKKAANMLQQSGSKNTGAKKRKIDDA

molecular target: ATP-dependent DNA helicase Q1 (Homo sapiens) (UniProt P46063); experiment: qHTS Assay for Inhibitors of RecQ-Like Dna Helicase 1 (RECQ1); settings: RECQ1 DNA unwinding, red fluorescence kinetic read; activity, negative = inhibition: at 57.3 µM (top of the series); series mostly up to 57.3 µM; note: nearly all actives have a fitted effect of over 30% in size;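 for activity, negative = inhibition: plate controls were vehicle for no effect and no enzyme for full effect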
Summary of the method: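 RECQ1T1 50 nM; forked duplex (20 bp + 30-nt ss tails) 200 nM, ATP 2 mM final; pH 8.0, 2 mM MgCl2, 2.5 ug/ml poly(dI-dC); 15 min compound preincubation; discontinuous kinetic read over 2 h at RT.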
Potency is the fitted concentration of half-maximal effect.

Row | Compound | Potency | activity, negative = inhibition | outcome
1 | Cc1cc(C)n(CCc2nc(-c3ccco3)cs2)n1 | active: 35.5 µM | – | –
2 | CCc1cccc2c1NC(=O)[C@]21[C@@H]2C(=O)N(Cc3ccccc3)C(=O)[C@@H]2[C@@H]2CCCN21 | inconclusive: 31.6 µM [inhibitor, single point] | – | –
3 | COC(=O)c1ccc(CSc2nc3c(c(=O)n2-c2ccc(Br)cc2)SCC3)o1 | inconclusive: 0.398 µM [inhibitor, partial curve, poor fit] | – | –
4 | Nc1nc(Nc2ccccc2)nc(NCc2ccco2)c1[N+](=O)[O-] | inconclusive: 39.8 µM [inhibitor, single point] | – | –
5 | CCCN1C(=O)/C(=C/c2ccc(C)o2)SC1=Nc1ccc(OC)cc1 | inconclusive: 39.8 µM [inhibitor, single point] | – | –
6 | Nc1c(S(=O)(=O)c2ccccc2)c2nc3ccccc3nc2n1/N=C/c1ccco1 | inconclusive: 0.282 µM [inhibitor, full curve] | – | –
7 | COc1ccc(S(=O)(=O)N2CCOC2CNC(=O)C(=O)NCc2ccco2)cc1 (centres undefined) | inconclusive: 39.8 µM [inhibitor, single point] | – | –
8 | O=C(CSc1ncnc2scc(-c3ccccc3)c12)N1CCN(Cc2ccc3c(c2)OCO3)CC1 | active: 12.6 µM | – | –
9 | CC1(C)CC(=O)C2=C(C1)NC(=O)CC2c1cc2c(cc1Br)OCO2 (centres undefined) | inconclusive: 39.8 µM [inhibitor, single point] | – | –
10 | O=c1ccc2cc3c([nH]c4ccc(Br)cc43)oc-2c1O | inconclusive: 39.8 µM [inhibitor, single point] | – | –
11 | CC(C)CN(CC(C)C)C1=N/C(=C\c2ccco2)C(=O)N1c1ccccc1 | inconclusive: 39.8 µM [inhibitor, single point] | – | –
12 | O=C(Oc1c(CN2CCOCC2)cc(Cl)c2cccnc12)c1ccccc1Br | – | inactive: -4.28% | –
13 | Cc1ccc2c(c1)C(c1ccc([N+](=O)[O-])cc1)=NNC(c1ccc(Br)cc1)=N2 | – | inactive: -2.17% | –
14 | CNC(=O)COC(=O)c1c2c(nc3ccccc13)CCC2 | inconclusive: 28.2 µM [inhibitor, single point] | – | –
15 | COc1ccccc1C(OC(=O)c1cccs1)C(=O)NCC1CCCO1 (centres undefined) | inconclusive: 0.199 µM [inhibitor, full curve] | – | –
16 | CS(=O)(=O)NCCSCc1c(Cl)cccc1Cl | inconclusive: 25.1 µM [inhibitor, partial curve, poor fit] | – | –
17 | CN(C)c1ccc(C2C3=C(CCCC3=O)OC3=C2C(=O)CCC3)cc1 | inconclusive: 31.6 µM [inhibitor, single point] | – | –
18 | CC(=O)Nc1ccc2c3c(cccc13)C(=O)N(c1ccccc1)C2=O | – | inactive: -5.24% | –
19 | CCC(NC(=O)Nc1ccc(O)cc1)(C(F)(F)F)C(F)(F)F | inconclusive: 39.8 µM [inhibitor, single point] | – | –
20 | O=S(=O)(Nc1nc(-c2sccc2Cl)cs1)c1cc(Cl)ccc1Cl | inconclusive: 28.2 µM [inhibitor, single point] | – | –
21 | Oc1ccc(NCc2cccc(OCc3ccc(F)cc3)c2)cc1 | inconclusive: 39.8 µM [inhibitor, single point] | – | –
22 | CCOC(=O)c1c(NC(=O)/C=C/C(=O)O)sc(C)c1-c1ccc(C(C)(C)C)cc1 | inconclusive: 31.6 µM [inhibitor, single point] | – | –

By substructure: the entries above with two or more sulfur atoms.
Row | Compound | Potency | activity, negative = inhibition | outcome
3 | COC(=O)c1ccc(CSc2nc3c(c(=O)n2-c2ccc(Br)cc2)SCC3)o1 | inconclusive: 0.398 µM [inhibitor, partial curve, poor fit] | – | –
8 | O=C(CSc1ncnc2scc(-c3ccccc3)c12)N1CCN(Cc2ccc3c(c2)OCO3)CC1 | active: 12.6 µM | – | –
16 | CS(=O)(=O)NCCSCc1c(Cl)cccc1Cl | inconclusive: 25.1 µM [inhibitor, partial curve, poor fit] | – | –
20 | O=S(=O)(Nc1nc(-c2sccc2Cl)cs1)c1cc(Cl)ccc1Cl | inconclusive: 28.2 µM [inhibitor, single point] | – | –

Following part.

Row | Compound | Potency | activity, negative = inhibition | outcome
23 | C=C(CC)C(=O)c1ccc(OCC(=O)O)c(Cl)c1Cl | inconclusive: 35.5 µM [inhibitor, partial curve] | – | –
24 | N=C1CCC(=N)c2c1c(O)c1ccccc1c2O | inconclusive: 28.2 µM [inhibitor, single point] | – | –
25 | Cc1ccc(NC(=O)CN2C(=O)N/C(=C/c3cc(C)n(-c4ccc(C(=O)O)cc4)c3C)C2=O)cc1 | active: 39.8 µM | – | –
26 | Cc1ccc(C2CC(=O)N3CN(Cc4ccco4)CSC3=C2C#N)cc1 (centres undefined) | – | – | inactive
27 | COc1ccc(-c2csc(NC(=O)CSc3nc(SC)ns3)n2)cc1 | inconclusive: 28.2 µM [inhibitor, partial curve] | – | –
28 | O=C(/C=C/c1cccc([N+](=O)[O-])c1)Nc1cccc(NC(=O)c2cccs2)c1 | inconclusive: 5.01 µM [inhibitor, partial curve, poor fit] | – | –
29 | O=C(/C=C/c1cn(-c2ccccc2)nc1-c1cccc(Cl)c1)N1CCN(c2ccccn2)CC1 | inconclusive: 5.01 µM [inhibitor, full curve] | – | –
30 | Cc1ccc(Nc2ccc(N)cc2S(=O)(=O)O)cc1 | inconclusive: 28.2 µM [inhibitor, single point] | – | –
31 | CCOc1ccc(C(=O)C2CCN(C(=O)c3ccccc3C(=O)O)CC2)cc1 | inconclusive: 0.891 µM [inhibitor, single point] | – | –
32 | Cc1cc(C(=O)O)ccc1-c1ccc(/C=C2\NC(=O)N(Cc3ccccc3Cl)C2=O)o1 | – | inactive: -7.12% | –
33 | O=C1CCC/C(=N\NC(=O)c2ccc(CSc3cccc4cccnc34)cc2)C1 | active: 28.2 µM | – | –
34 | Cc1ccc(C2C(C#N)=C(N)Oc3n[nH]c(-c4cccs4)c32)cc1 (centres undefined) | – | inactive: -5.24% | –
35 | COc1ccc(C(=O)N/N=C(\C)c2ccc3c(c2)C2C=CCC2C(c2ccccc2)N3)cc1 (centres undefined) | – | inactive: -3.84% | –
36 | CCCCOc1ccc(S(=O)(=O)N2CCCCCC2)cc1 | inconclusive: 0.112 µM [inhibitor, partial curve, poor fit] | – | –
37 | CCOC(=O)C1(Cc2cccc(OC)c2)CCN(Cc2ccc3c(c2)OCCO3)CC1 | – | – | inactive
38 | O=c1oc2c3c4c(cc2c(C(F)(F)F)c1CCN1CCOCC1)CCCN4CCC3 | inconclusive: 35.5 µM [inhibitor, single point] | – | –
39 | CC(C)Sc1nc2c(c(=O)[nH]1)C(c1cccs1)C1=C(CC(C)(C)CC1=O)N2 (centres undefined) | inconclusive: 6.31 µM [inhibitor, single point] | – | –
40 | C=CCSc1nc2[nH]ncc2c(=O)[nH]1 | inconclusive: 0.126 µM [inhibitor, full curve, poor fit] | – | –
41 | O=C(Cc1cnn(-c2ccccc2)c1)c1ccc(O)c(O)c1O | active: 3.16 µM | – | –
42 | C=CCN1c2ccccc2[C@]23C[C@@H](C(=O)OC)N(C(=O)C4CCC4)C2=NC(C(=O)OC)=C(C(=O)OC)[C@H]13 | inconclusive: 6.31 µM [inhibitor, single point] | – | –
43 | COc1ccccc1N(C(=O)c1snc(C(N)=O)c1N)C(C(=O)NC1CCCC1)c1ccco1 (centres undefined) | inconclusive: 39.8 µM [inhibitor, single point] | – | –
44 | COc1ccc(NC(=O)CN2CCC(C)CC2)c([N+](=O)[O-])c1 | inconclusive: 35.5 µM [inhibitor, partial curve] | – | –

Row | Compound | Potency | activity, negative = inhibition | outcome
45 | CSc1cccc(NC(=O)c2ccco2)c1 | inconclusive: 3.55 µM [inhibitor, full curve] | – | –
46 | CCN(CC)c1ccc(/C=N/NC(=S)NCc2ccco2)cc1 | inconclusive: 3.98 µM [inhibitor, full curve] | – | –
47 | Cc1cccc(N2CCN(C(=O)c3ccccc3NC(=O)C3CCCCC3C(=O)O)CC2)c1 (centres undefined) | inconclusive: 0.141 µM [inhibitor, full curve, poor fit] | – | –
48 | C=C(C)C(=O)Nc1cccc(C2=NOC3(C2)C[C@@H](C(N)=O)N(C(=O)/C=C/C=C/C)C3)c1 (some centres undefined) | inconclusive: 25.1 µM [inhibitor, single point] | – | –
49 | Cn1ccnc1SCC(=O)c1cccc(Br)c1 | inconclusive: 0.158 µM [inhibitor, full curve, poor fit] | – | –
50 | NC(=O)c1ccsc1NC(=O)c1ccc(N2CCCC2=O)cc1 | inconclusive: 31.6 µM [inhibitor, single point] | – | –
51 | C[C@H]1C=C(C(=O)NCc2ccccc2)O[C@@H](OCc2ccc(CO)cc2)C1 | inconclusive: 39.8 µM [inhibitor, single point] | – | –
52 | COc1ccc(C(=O)COC(=O)c2cccnc2Cl)c(OC)c1 | inconclusive: 35.5 µM [inhibitor, single point] | – | –
53 | CCCC[C@@H](C)/C=C(C)/C=C(\C)C(=O)NC1=C[C@@](O)(/C=C/C=C/C=C/C(=O)NC2=C(O)CCC2=O)[C@@H]2O[C@@H]2C1=O | inconclusive: 35.5 µM [inhibitor, single point] | – | –
54 | CCCCCC(=O)N1CC2(CC(c3cccc(NC(=O)[C@@H]4CCC(=O)N4)c3)=NO2)C[C@@H]1C(N)=O (some centres undefined) | inconclusive: 6.31 µM [inhibitor, single point] | – | –
55 | COCCn1c(C)cc(C(=O)CSc2nnc(-c3cccnc3)n2-c2ccccc2F)c1C | active: 3.16 µM | – | –
56 | Oc1[nH]c2ccccc2c1N=Nc1ccc(C(F)(F)F)cn1 | inconclusive: 6.31 µM [inhibitor, single point] | – | –
57 | O=C(c1cccc(F)c1)N1CCC2(CCCN(Cc3ccccc3)C2)CC1 | inconclusive: 17.8 µM [inhibitor, partial curve, poor fit] | – | –
58 | Fc1ccc(NC(=S)N2CCn3cccc3C2c2cccnc2)cc1 (centres undefined) | – | inactive: -0.0295% | –
59 | COc1cc(Br)c(CCNC(=O)c2ccco2)cc1OC | inconclusive: 35.5 µM [inhibitor, single point] | – | –
60 | CCCCNC(=S)NNC(=O)c1csc2c1CCC(C)C2 (centres undefined) | inconclusive: 7.08 µM [inhibitor, single point] | – | –
61 | Cc1cccc(C(=O)N=c2c(C#N)cc3c(=O)n4cccc(C)c4nc3n2Cc2ccco2)c1 | inconclusive: 35.5 µM [inhibitor, single point] | – | –
62 | COc1cccc(/C=C/C(=O)OCC(=O)NCc2ccco2)c1 | inconclusive: 28.2 µM [inhibitor, single point] | – | –
63 | CN(C)c1ccc(/C=C/c2ccc3ccccc3[n+]2C)cc1 | inconclusive: 39.8 µM [inhibitor, single point] | – | –
64 | C[C@@]1(C(=O)O)NCCc2cc(O)c(O)cc21 | active: 2.51 µM | – | –
